Assay: H2S release on irradiation of PpIX in a cell free system, fluorogenic probe WSP-1
Settings: for effect of irradiation on H2S release / H2S release prior to irradiation: donor 100 μM; for H2S release prior to irradiation: with vs without PpIX 2 μM
[1] = in the presence of PpIX 2 μM, 636 nm, 25 J/cm2

## O=C(CCCCCCCCC[P+](c1ccccc1)(c1ccccc1)c1ccccc1)Oc1ccc(-c2cc(=S)ss2)cc1 [AP39-C10]
In the absence of PpIX
  effect of irradiation on H2S release: does not have any significant effect on the release of H2S
[1]
  effect of irradiation on H2S release: significantly increases the release of H2S
FIG. 5, 6
  H2S release prior to irradiation: unaffected by the presence of PpIX

## NC(=S)c1ccc(OC(=O)CCCCCCCCC[P+](c2ccccc2)(c2ccccc2)c2ccccc2)cc1 [AP123-C10]
AP123-C10 vs AP39-C10, 100 μM, FIG. 5, 6
  relative H2S release: releases more H2S than the 4-HTB derivative AP39-C10
In the absence of PpIX
  effect of irradiation on H2S release: does not have any significant effect on the release of H2S
[1]
  effect of irradiation on H2S release: significantly increases the release of H2S
FIG. 5, 6
  H2S release prior to irradiation: unaffected by the presence of PpIX
